# Results: article PMC3765158, “Structure Determination and Biochemical Characterization of a Putative HNH Endonuclease from Geobacter metallireducens GS-15” (PLoS ONE, 2013)
# Numbering of substitutions follows the chain as printed. For part of these data: The comparison behind a weaker result is the experiment's own reference, which may not be listed here. For part of these data: Where a protein sequence is shown, tags need not be part of it. For part of these data: For at least one entry, the source does not settle the construct or the ends of the probe.
# Key:
# Assay in all cases: EMSA
# [1] = target: T1, Gmet_0936 N77H (H6) (Geobacter metallireducens GS-15) (UniProt Q39X46); details: no divalent cations, 2-3 complexes at 20-fold molar excess of protein; EMSA: room temperature, 20 min, binding buffer without divalent cations (composition, salt and pH not given), 10% polyacrylamide gel; 1x = 0.5 ug protein, 1/2x to 8x; recombinant protein; residues 1-104; protein details: C-terminal 6xHis; label: 3'-FAM on strand 2
# T1 sequence (looked up): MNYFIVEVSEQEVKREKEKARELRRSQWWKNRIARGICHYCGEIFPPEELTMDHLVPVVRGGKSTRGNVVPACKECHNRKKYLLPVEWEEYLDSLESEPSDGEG
# [2] = tested on: N.Bsu (Bsu HNH nicking endonuclease) (Bacillus subtilis); details: no divalent cations, high molecular weight complex; EMSA: room temperature, 20 min, binding buffer without divalent cations (composition, salt and pH not given), 10% polyacrylamide gel; 1x = 0.5 ug protein, 1/2x to 8x; recombinant protein; label: 3'-FAM on strand 2
# [3] = target: T2, Gmet_0936 (Gme HNHE), 6xHis (Geobacter metallireducens GS-15) (UniProt Q39X46); details: no divalent cations, 2-3 complexes at 20-fold molar excess of protein; EMSA: room temperature, 20 min, binding buffer without divalent cations (composition, salt and pH not given), 10% polyacrylamide gel; 1x = 0.5 ug protein, 1/2x to 8x; recombinant protein; residues 1-104; protein details: C-terminal LEH6; label: 3'-FAM on strand 2
# T2 sequence (looked up): T1 sequence (looked up) with H77N
sequence,measurement,setting,value
ACGATAGTTACCGGATAAGGCGCAGCGG (double strand) [ACCGG duplex (oligo 1/oligo 2)],binding result,[1],binds more weakly
same,binding result,[2],binds
same,binding result,[3],binds more weakly
